This passage reports binding results from paper doi:10.1101/318840.

Sequences of proteins named here, by UniProt entry; tags and fusion partners are left off. A change or cut given only in a name is not applied to a line headed by its entry.
UniProt Q8WXG1: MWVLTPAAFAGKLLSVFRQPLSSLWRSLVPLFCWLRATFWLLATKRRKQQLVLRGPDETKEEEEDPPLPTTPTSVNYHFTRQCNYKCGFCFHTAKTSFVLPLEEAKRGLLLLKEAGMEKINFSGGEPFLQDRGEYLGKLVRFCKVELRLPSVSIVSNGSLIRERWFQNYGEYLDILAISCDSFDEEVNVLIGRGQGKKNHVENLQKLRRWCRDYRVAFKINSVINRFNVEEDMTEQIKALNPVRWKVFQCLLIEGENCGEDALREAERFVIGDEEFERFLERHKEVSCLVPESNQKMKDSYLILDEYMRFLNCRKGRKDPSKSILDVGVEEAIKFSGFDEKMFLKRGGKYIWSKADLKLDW

The target in the test is viperin-Δ3C (human) (UniProt Q8WXG1). In words: co-IP.

Results are given in words; binding and its absence hold for the method and conditions named. In cells and extracts the contact can be indirect. Binding can be weak; no strength is given.

As to “interleukin-1 receptor-associated kinase-1 (IRAK1), N-terminal Myc tag (from UniProt P51617-1 1-712) (enzyme)”, the binding result is reported as “binds”.
